A short description of the assay: qHTS Assay for Lipid Storage Modulators in Drosophila S3 Cells.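 As to cell number change: cells counted by Cell Tracker Red CMTPX staining in the red channel.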 The settings on record: BODIPY lipid droplet fluorescence, 18-24 h; for cell number change: measured here: cell count max response, cells fed with added oleic acid. An outline of the steps:
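Laser-scanning cytometry quantifies lipid droplet accumulation (500–530 nm total intensity; droplet/cell object ratio) in oleic acid-fed (400 uM added) Drosophila S3 cells treated with a concentration series. 20 uM Triacsin C defined 100% inhibition.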
(In general: In qHTS, concentration-response curves come from the screen itself.)

[1] abbreviates: measured here: cell number channel AC50, cells fed with added oleic acid.
[2] abbreviates: measured here: lipid fluorescence (Fed channel) AC50, cells fed with added oleic acid.

This is one part of the list. Shown are side measurements of this screen, not its main read-out; they come without a call. Compounds called inactive in the main read-out are mostly missing here. Potencies come from curve fits of mixed quality, noted in brackets.

On to `O=C(CSc1nccn(-c2ccc(Br)cc2)c1=O)NC1CCCC1`, for which the half-maximal activity concentration (AC50) (commonly the midpoint of the concentration-response curve, whichever way the signal moves) under setting [1] was 3.66 µM [rising, partial curve, poor fit]. Still for that read-out and setting: next, `COc1ccc(/C=N/NC(=O)c2[nH]c3ccc(Br)cc3c2-c2ccccc2)cc1`: 0.82 µM [falling, full curve, poor fit]. Turning to `Cc1ccc(S(=O)(=O)N2CCN(C(=O)C3CCN(C(=O)c4ccc(F)cc4)CC3)CC2)c(C)c1`, the cell number change came out at 60.2%. Further, under setting [1], the half-maximal activity concentration (AC50) was 9.2 µM [rising, partial curve]. For `NC(=O)CN1C(=O)C(=O)N(Cc2cccc(Cl)c2)C1=O`, the cell number change was found to be 22.6%. Besides, the AC50 under setting [2] is 10.3 µM [rising, partial curve]. With `Cc1cc(SCc2ccccc2Cl)nc(=O)[nH]1`, the cell number change was found to be 32%. The AC50 under setting [1] was 3.66 µM [rising, full curve]. On to `CN(C)C(CNC(=O)c1ccc(NS(=O)(=O)c2cccc([N+](=O)[O-])c2)cc1)c1ccco1` (centres undefined), for which the cell number change was -22.3%. Under setting [2], the AC50 was 25.9 µM [falling, single point].

For `Cn1c(SCC(=O)c2ccc3c(c2)OCO3)nnc1C1COc2ccccc2O1` (centres undefined), the AC50 under setting [1] is 0.517 µM [rising, full curve].

For `O=C(Cc1ccc(Cl)cc1)NCCc1cnc[nH]1`, the cell number change came to 6.38%. Moreover, the half-maximal activity concentration (AC50) under setting [2] is 29.1 µM [falling, single point]. With `CCOC(=O)c1ccc(NC(=O)NNS(=O)(=O)c2cc(OC)ccc2OC)cc1`, the cell number change was -37.3%. Besides, the AC50 under setting [1] is 8.2 µM [falling, partial curve]. In the case of `CCC(C(=O)OC(C)C(=O)Nc1ccc(Cl)cn1)c1ccccc1` (centres undefined), the cell number change is -4.19%. `Cn1c(SCC(=O)Nc2ncc(C(F)(F)F)cc2Cl)nnc1-c1ccc(Cl)cc1`: the concentration at half-maximal activity (AC50) under setting [1] was 1.16 µM [rising, full curve]. As for `CCOC(=O)C1=C(C)Nc2ccccc2N=C1NC(=O)C(c1ccccc1)c1ccccc1`, the cell number change came out at 18.5%. Besides, under setting [1], the AC50 was 3.26 µM [falling, partial curve]. For the same compound, the concentration at half-maximal activity (AC50) under setting [2] is 13 µM [falling, partial curve]. As for `O=C(CSc1nnc(Nc2ccccc2)s1)NCCN1C(=O)CSC1=O`, the cell number change is -15.4%. In addition, the AC50 under setting [2] was 20.6 µM [falling, partial curve]. As for `CCCCNC(=S)N(C)/N=C/c1sc(N2CCCCC2)nc1-c1cccs1`, the cell number change is -57.3%. Besides, under setting [1], the AC50 is 23.1 µM [falling, partial curve]. Besides, the half-maximal activity concentration (AC50) under setting [2] was 2.59 µM [falling, full curve, poor fit]. As for `Cc1nn(CCc2nn[nH]n2)c2nc(C(F)(F)F)cc(C(F)(F)F)c12`, the cell number change is -14.3%. For the compound `C(=N\n1cnnc1)/c1ccccc1OCCOc1ccccc1`, the cell number change is -11.4%. For the same compound, the AC50 under setting [2] was 0.103 µM [rising, full curve, poor fit]. Consider `Cc1ccc2c(COC(=O)c3n[nH]c4ccccc34)cc(=O)oc2c1`, for which the cell number change is -12.6%. For `COc1cc2c(cc1OC)C(c1cc3cccc(C)c3[nH]c1=O)N(C(=O)c1ccco1)CC2` (centres undefined), the cell number change worked out at 7.69%.

Regarding `CCC1(CC)NC(=O)N(CC(=O)OCC(=O)NC(=O)c2ccccc2OC)C1=O`, the cell number change is -12%. In addition, the AC50 under setting [1] is 0.00517 µM [falling, full curve, poor fit]. On to `Cc1cccc(NC(=O)CSc2nc3ccccc3nc2N2CCCC2)c1`, for which the cell number change is 12.7%. Same read-out and setting: with `Cc1ccc(N2C(=O)CS(=O)(=O)CC2=O)cc1` the figure was -24.6%.

Take `O=C(CSc1nnc(NC(=O)c2ccco2)s1)NCc1ccc2c(c1)OCO2`: the cell number change was determined as 13%. In addition, the AC50 under setting [1] was 0.231 µM [rising, partial curve, poor fit]. Besides, under setting [2], the concentration at half-maximal activity (AC50) is 1.16 µM [rising, single point]. For the compound `COc1cccc(N(CC(=O)NCCSCc2ccc(C)cc2)S(C)(=O)=O)c1`, the cell number change was -32.6%. Besides, under setting [1], the AC50 was 20.6 µM [falling, single point]. For the same compound, the AC50 under setting [2] is 29.1 µM [falling, single point]. Take `CCOC(=O)Cn1c(-c2cccnc2Cl)nc2cc(Cl)c(Cl)cc21`: the cell number change amounted to 27.2%. In addition, the AC50 under setting [1] is 0.651 µM [rising, full curve, poor fit]. Moreover, the concentration at half-maximal activity (AC50) under setting [2] was 6.51 µM [rising, partial curve, poor fit]. As for `CCN(c1ccccc1)c1nc2ccsc2c(=O)s1`, the AC50 under setting [2] was 0.58 µM [falling, single point]. The same measure, in the same setting: with `CC1(C)CC(N2CCN(C(c3ccccc3)c3ccccc3)CC2)=CC(=[N+]2CCCCC2)C1` the figure was 1.84 µM [falling, full curve]. As to `CCN1/C(=C/c2ccc3cc(C)cc(C)c3[n+]2CC)Sc2cc(C)ccc21`, the cell number change is -60.5%. Also, under setting [1], the AC50 was 7.31 µM [falling, partial curve]. Regarding `CC(C)c1ccc(CN2CC(C(=O)O)CC2=O)cc1` (centres undefined), the cell number change is -45.4%. Further, the AC50 under setting [1] is 29.1 µM [falling, single point]. The AC50 under setting [2] is 29.1 µM [falling, single point].

Turning to `COc1ccccc1-c1cc(C(=O)NCCN2CCOCC2)no1`, the cell number change was 39.5%. Moreover, the AC50 under setting [1] was 23.1 µM [rising, single point]. For the same compound, under setting [2], the AC50 was 25.9 µM [rising, single point].

`CCn1c(SCC(=O)N2CCN(c3ccccc3)CC2)nc2c([nH]c3ccccc32)c1=O`: the cell number change is -2.55%. For the same compound, the AC50 under setting [2] was 0.13 µM [rising, full curve, poor fit]. As for `O=C(NCC1CCCO1)c1ccccc1-c1nc(-c2ccccc2)no1` (centres undefined), the cell number change was -7.43%. Consider `O=C(O)c1ccc(C=C(c2nc3ccccc3s2)c2nc3ccccc3s2)cc1`, for which the AC50 under setting [2] is 6.51 µM [falling, single point]. Regarding `COc1ccc(NC(=O)COC(=O)COc2cccc3c2OC(C)(C)C3)cc1`, the cell number change was -17.3%. Further, the AC50 under setting [1] was 0.058 µM [falling, full curve, poor fit]. Moreover, the AC50 under setting [2] was 0.259 µM [falling, full curve]. In the case of `CCC1CCCCN1c1cc(C)nc2cc(-c3cccc(C)c3)nn12` (centres undefined), the cell number change was -42.2%. Besides, under setting [1], the AC50 is 29.1 µM [falling, single point].

Take `COc1cc(-c2nnc(SCC#CCO)o2)cc(OC)c1OC`: the cell number change is -16.5%. For the same compound, the concentration at half-maximal activity (AC50) under setting [1] was 0.13 µM [rising, full curve, poor fit]. The AC50 under setting [2] was 0.731 µM [rising, single point]. For the compound `O=C(Nc1ccc(C(=O)O)cc1)/C(=C\c1ccccc1)NC(=O)c1ccco1`, the cell number change is 12.2%. The AC50 under setting [2] is 29.1 µM [rising, single point]. For the compound `CCOC(=O)c1cnc2c(C)c(C)ccc2c1NCCN1CCOCC1`, the cell number change is -13.9%. Same read-out and setting: next, `CC(=O)c1ccc(COC(=O)c2ccccc2NC(=O)C(C)C)cc1`: 168%. With `O=c1c2[nH]c3ccc(F)cc3c2ncn1CCCN1CCOCC1`, the cell number change is -13.2%. For `CCCCNCCOCCOc1ccc(F)cc1`, the cell number change is -26.3%. Also, under setting [2], the AC50 is 36.6 µM [falling, partial curve].

For the compound `CN(C)S(=O)(=O)c1cccc(NC(=S)N/N=C/c2cc(Br)ccc2O)c1`, the cell number change was -27.1%. Take `Cc1cccc(N2C(=O)N3[C@H](c4ccc(Br)cc4)[C@@H]4C(=O)N(C(C)(C)C)C(=O)[C@@H]4[C@]3(Cc3ccc(Cl)cc3)C2=O)c1`: the cell number change was found to be 55.1%. In addition, the half-maximal activity concentration (AC50) under setting [1] was 29.1 µM [rising, partial curve]. Further, the AC50 under setting [2] was 0.58 µM [falling, full curve].

On to `COc1ccccc1N1CCN(C(=O)c2cc(-c3ccc(F)cc3)[nH]c2C)CC1`, for which the cell number change is -31.7%. For the same compound, under setting [1], the AC50 is 1.16 µM [falling, full curve, poor fit]. For `COCCn1c(N)c(C(=O)NS(=O)(=O)c2ccc(C)cc2)c(=O)[nH]c1=O`, the cell number change was -23.9%. Under setting [1], the half-maximal activity concentration (AC50) is 0.0517 µM [falling, full curve, poor fit]. As for `Cc1ccc(Cn2c(=O)c3ccccc3n3c(CCC(=O)NCCN4CCOCC4)nnc23)cc1`, the cell number change came to 5.93%. Further, the AC50 under setting [1] is 0.00411 µM [rising, full curve, poor fit]. Take `Cc1cc(=O)n2[nH]c(=O)c(N=Nc3ccccc3)c2[nH]1`: the cell number change turned out to be 15.5%. For the same compound, the concentration at half-maximal activity (AC50) under setting [2] is 29.1 µM [rising, single point]. Turning to `CC(=O)Nc1ccc(S(=O)(=O)NCc2ccc(C(=O)NCc3ccc4c(c3)OCO4)cc2)cc1`, the cell number change is -19.8%. In addition, the AC50 under setting [1] is 0.731 µM [falling, full curve, poor fit]. The concentration at half-maximal activity (AC50) under setting [2] was 1.84 µM [falling, full curve]. In the case of `C#CCn1cc[n+](CC(=O)N(C)C)c1`, the cell number change was -31.9%. Under setting [1], the AC50 is 0.206 µM [falling, full curve]. The AC50 under setting [2] is 3.66 µM [falling, full curve]. With `CC(=O)Nc1ccc(S(=O)(=O)N2CCC(n3cnc4cc(F)ccc43)CC2)cc1`, the cell number change is -8.43%. Moreover, the AC50 under setting [2] is 20.6 µM [falling, single point]. On to `Cc1cccc(Nc2nnc(SCC(=O)NCc3cccs3)s2)c1`, for which the cell number change was -15.3%. `Cc1ccc(C)c(NC(=O)CN(C)C(=O)c2cccc(-n3cccc3)c2)c1`: the cell number change amounted to 20.5%. The AC50 under setting [2] is 0.731 µM [rising, full curve]. For `O=C(NCc1ccco1)/C(=C\c1cccc([N+](=O)[O-])c1)NC(=O)c1ccco1`, the cell number change is 21.5%.

`CCOC(=O)c1cnc(SCc2nc(N)nc(Nc3ccccc3OC)n2)nc1N`: under setting [2], the AC50 is 23.1 µM [rising, single point]. As for `O=C(Nc1ccn(Cc2ccccc2)n1)c1cccc(F)c1`, the AC50 under setting [1] was 0.116 µM [rising, full curve, poor fit]. Consider `COC(=O)c1ccccc1NC(=O)CSc1nnnn1C1CCCCC1`, for which, under setting [1], the AC50 is 0.0651 µM [rising, partial curve, poor fit].

Regarding `CSc1ccc(/C=C(/NC(=O)c2ccccc2)C(=O)N2CCN(C)CC2)cc1`, the cell number change was -9.05%. As for `O=C(Nc1ccon1)C(Sc1ccccc1)c1ccccc1` (centres undefined), the cell number change was -5.48%. Also, the half-maximal activity concentration (AC50) under setting [1] is 0.13 µM [falling, full curve, poor fit]. Also, under setting [2], the AC50 is 0.092 µM [falling, full curve, poor fit]. On to `CC(=O)Oc1ccc(N2C(=O)CCC2=O)cc1`, for which the cell number change turned out to be 2.08%.

In the case of `CCNC(=S)N1CCN(S(=O)(=O)c2ccccc2C(F)(F)F)CC1`, the AC50 reads like this: under setting [1], 0.00461 µM [falling, full curve, poor fit]; under setting [2], 29.1 µM [falling, single point]. In the case of `C#CCn1ccc(O)c(Cc2ccccc2)c1=O`, the cell number change stood at 24.7%. Moreover, under setting [2], the concentration at half-maximal activity (AC50) was 0.092 µM [rising, full curve, poor fit]. Regarding `CC(C)[C@H](N[C@@H](C)c1ccccc1)c1c(O)ccc2ccccc12`, the cell number change turned out to be 17.5%.

The record behind these values is PubChem BioAssay AID2685 (National Center for Advancing Translational Sciences (NCATS), 2010).
